Measured values: article doi:10.1101/2025.07.20.665762

Target: T1, Arabidopsis TRN1, full-length CDS in the pGBKT7 bait vector (Arabidopsis thaliana) (UniProt Q8H0U4)
T1 sequence: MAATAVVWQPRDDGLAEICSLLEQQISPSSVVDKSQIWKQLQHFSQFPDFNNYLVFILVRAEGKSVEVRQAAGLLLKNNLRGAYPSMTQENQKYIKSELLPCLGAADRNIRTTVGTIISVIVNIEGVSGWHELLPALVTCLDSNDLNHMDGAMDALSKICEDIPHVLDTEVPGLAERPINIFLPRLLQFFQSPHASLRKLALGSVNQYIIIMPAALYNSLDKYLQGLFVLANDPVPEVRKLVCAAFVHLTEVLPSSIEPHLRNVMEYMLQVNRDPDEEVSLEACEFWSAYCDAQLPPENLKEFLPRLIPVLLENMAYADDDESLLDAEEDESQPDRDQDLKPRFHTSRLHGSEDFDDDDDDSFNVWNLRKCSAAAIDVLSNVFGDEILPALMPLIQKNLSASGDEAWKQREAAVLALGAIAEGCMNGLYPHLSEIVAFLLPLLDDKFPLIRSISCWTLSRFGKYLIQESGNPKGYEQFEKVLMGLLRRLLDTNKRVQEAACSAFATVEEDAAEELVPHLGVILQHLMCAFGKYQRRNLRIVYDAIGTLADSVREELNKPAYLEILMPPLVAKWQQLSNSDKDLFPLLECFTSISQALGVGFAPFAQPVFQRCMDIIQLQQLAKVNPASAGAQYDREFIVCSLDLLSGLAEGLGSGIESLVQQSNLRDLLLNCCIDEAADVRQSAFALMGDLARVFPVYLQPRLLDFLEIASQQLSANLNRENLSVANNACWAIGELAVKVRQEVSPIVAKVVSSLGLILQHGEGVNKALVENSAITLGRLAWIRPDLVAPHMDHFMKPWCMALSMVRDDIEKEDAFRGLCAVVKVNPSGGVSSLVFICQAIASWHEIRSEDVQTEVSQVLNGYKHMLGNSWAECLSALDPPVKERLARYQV
Assay: two-hybrid

binding: binds
Substance: full-length PLA2-like in the pGADT7 prey vector (Arabidopsis thaliana)

These are yes or no findings as the source states them, for the method shown. Binding calls can cover weak binding; strength is not graded here.
